Assay results as given in US20020155422A1, “Methods for analyzing dynamic changes in cellular informatics and uses therefor” (priority 2000, published 2002).
At least one structure is not confirmed: it was looked up by name or label, or the drawing left a doubt.

Tested on: HL-60 cells
Assay: Gene expression profiling (Resgen microarray filters) of HL-60 cells stimulated to differentiate into neutrophils, time course
Type: cell-based, human
Conditions: 281 genes
Source text: Given the value of understanding the genetic basis of the switch between different hematopoietic stem cell lineages, a well-characterized human pluripotent precursor cell line—the HL 60 promyeloid leukemia cell line—provides a useful model system. HL 60 precursors cells can be induced to switch to granulocytes, monocytes, or macrophages based on alterations in experimental conditions. […] Established molecular methods (e.g., immunocytochemistry, FACS cell sorting, SDS-PAGE, Western blots, Northern blots, or other biochemical or molecular biological techniques) can be used to identify cells that have switched, between different phenotypes. […]
Cell state transitions that may be studied and characterized in the HL60 model system include: A) induction of a transition from HL60 precursor to a granulocyteby treatment with DMSO; B) induction of a reverse transition from granulocyte to HL60 by removing DMSO; C) induction of a transition from HL60 precursor to granulocyte using all-trans-retinoid acid; D) induction of a reverse transition from granulocytes to HL60 precursors by removing all-trans-retinoid acid; E) induction of a transition from HL60 precursors to a monocyte(s) by addition of NaButyrate; and F) induction of a transition from HL60 precursors to a macrophage(s) by addition of TPA. […] In this experiment, only a relatively low number of genes (<300) were analyzed over 7 time points. […]

CC1=C(/C=C/C(C)=C/C=C/C(C)=C/C(=O)O)C(C)(C)CCC1 [retinoic acid]
inter-trajectory distance DT(t) (squared Euclidean distance between state vectors S1(t), S2(t)) (HL-60 cells 1.5×10^6 cells/ml, DMSO (S1 path) versus retinoic acid (S2 path), 7 time points, FIG. 7): converge on the same differentiation state | phase portrait of switch from proliferation state to differentiation state (HL-60 cells, 10 random selections of 80% of the genes overlaid, FIG. 8): confirms the existence of an attractor switch
